Laboratory results: PubChem BioAssay AID504327 (National Center for Advancing Translational Sciences (NCATS), 2011)
About 820 (0.21%) of roughly 390,000 compounds were called active. This list was built around the results that the source calls inconclusive (neither active nor inactive); the mix of calls is not that of the screen. Calls come from the whole dose curve; as a rule, active = well fitted inhibition curve with a large enough effect; inconclusive = small, poorly fitted or top-dose-only effect, or another doubt; inactive = no such curve, though single readings can be large or run the other way. Where the call is inconclusive, the potency comes from a doubtful curve fit.

By UniProt entry, the sequences of proteins in these tests, tags left out.
UniProt Q92830, whole entry, looked up: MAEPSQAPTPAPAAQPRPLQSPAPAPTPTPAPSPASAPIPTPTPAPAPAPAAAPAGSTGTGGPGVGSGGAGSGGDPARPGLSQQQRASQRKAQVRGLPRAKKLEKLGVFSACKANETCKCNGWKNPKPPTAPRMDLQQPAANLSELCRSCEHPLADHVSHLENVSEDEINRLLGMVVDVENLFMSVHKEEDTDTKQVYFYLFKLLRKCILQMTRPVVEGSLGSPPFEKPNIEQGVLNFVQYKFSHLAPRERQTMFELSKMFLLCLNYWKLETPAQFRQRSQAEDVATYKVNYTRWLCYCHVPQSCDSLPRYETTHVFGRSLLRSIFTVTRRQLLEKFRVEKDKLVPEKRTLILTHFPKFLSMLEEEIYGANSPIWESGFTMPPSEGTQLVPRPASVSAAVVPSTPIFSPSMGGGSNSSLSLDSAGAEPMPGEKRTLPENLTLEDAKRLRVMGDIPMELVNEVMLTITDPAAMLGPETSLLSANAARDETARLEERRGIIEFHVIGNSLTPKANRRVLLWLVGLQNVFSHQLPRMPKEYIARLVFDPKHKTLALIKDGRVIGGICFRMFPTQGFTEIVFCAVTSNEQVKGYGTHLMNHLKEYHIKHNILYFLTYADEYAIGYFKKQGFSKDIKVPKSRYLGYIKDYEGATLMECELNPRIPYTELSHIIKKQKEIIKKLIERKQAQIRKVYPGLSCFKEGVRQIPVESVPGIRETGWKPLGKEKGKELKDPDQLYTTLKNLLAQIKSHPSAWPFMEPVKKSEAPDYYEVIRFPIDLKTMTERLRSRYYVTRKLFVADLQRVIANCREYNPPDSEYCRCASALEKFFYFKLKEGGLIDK

target: Histone acetyltransferase KAT2A (Homo sapiens) (UniProt Q92830); experiment: qHTS Assay for Inhibitors of GCN5L2; settings: GCN5L2 HAT assay, ThioGlo1 CoA-SH fluorescence; activity change, negative = inhibition: at 58.9 µM (top of the series) unless noted
In short: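 GCN5L2 (20nM final) in 50mM HEPES, 0.1mM EDTA pH 7.5, 0.01% Tween-20 was preincubated 15 min at room temperature with compound, then given ThioGlo1 (50uM), H3(1-25) peptide (75uM) and acetyl-CoA (70uM); CoA-thiol fluorescence (Ex340/Em540) was read at 0 and 20 min.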
% is set by controls: 0 for no effect and ±100 for the full control effect; potency is the fitted concentration of half-maximal effect.

| SMILES | Potency | activity change, negative = inhibition |
| --- | --- | --- |
| CN(C)/C=C/C(=O)c1ccc(S(=O)c2ccccc2)cc1 (centres undefined) | inconclusive: 0.708 µM [inhibitor, single point] | – |
| COc1ccc2c(CNCc3cccs3)c(C(=O)O)n(Cc3cccc(F)c3)c2c1 | – | inactive: -1.21% |
| Cc1ccc(NS(=O)(=O)c2ccc(C(=O)NCC(c3ccco3)N(C)C)cc2)cc1 (centres undefined) | inconclusive: 44.7 µM [inhibitor, partial curve, poor fit] | – |
| COc1ccc(Br)cc1/C=c1\sc2nc(-c3ccco3)nn2c1=O | inconclusive: 20 µM [inhibitor, single point] | – |
| Cc1ccc(NC(=O)c2nc[nH]c2C(=O)N2CCCCC2)c(C(=O)c2ccccc2)c1 | inconclusive: 0.631 µM [inhibitor, single point] | – |
| CC1CN(CC(=O)Nc2ccccc2Sc2ccccc2)CC(C)O1 (centres undefined) | – | inactive: 0.268% |
| Cn1c(=O)cc(SCC(=O)NCCc2ccc(Cl)cc2)c2cc(Cl)ccc21 | – | inactive: 0.0195% |
| CN(CCOc1ccc(Cl)cc1)CC(=O)Nc1ccc(OC(F)F)cc1 | inconclusive: 39.8 µM [inhibitor, single point] | – |
| Nc1nc(O)c(Sc2ccccc2[N+](=O)[O-])c(=O)[nH]1 | – | inactive: -18.5% |
| COc1ccc(Nc2nc(-c3cccs3)cs2)cc1 | inconclusive: 39.8 µM [inhibitor, single point] | – |
| NS(=O)(=O)c1ccc(CNC(=O)/C=C/c2ccc(S(=O)(=O)N3CCOCC3)cc2)cc1 | inconclusive: 12.6 µM [inhibitor, partial curve, poor fit] | – |
| COc1ccccc1N(CC(=O)NC(C)(C)C)C(=O)CCC(=O)Nc1ccccn1 | inconclusive: 25.1 µM [inhibitor, single point] | – |
| CCCOc1ccc(N2CC(C(=O)NCCc3ccc(OC)c(OC)c3)CC2=O)cc1 (centres undefined) | inconclusive: 3.55 µM [inhibitor, partial curve] | – |
| CC1CCCN(S(=O)(=O)c2ccc(C(=O)Nc3ccccc3-c3nc4ccccc4[nH]3)cc2)C1 (centres undefined) | inconclusive: 39.8 µM [inhibitor, single point] | – |
| CCOC(=O)CSc1nc2cc(OC)ccc2cc1C#N | inconclusive: 39.8 µM [inhibitor, single point] | – |
| Cc1ccccc1NC(=O)N1CCc2c(sc3c2CCCC3)C1c1ccccc1 (centres undefined) | – | inactive: -16.7% |
| COc1ccc(N2CCN(C(=O)COC(=O)CNC(=O)c3ccccc3)CC2)cc1 | inconclusive: 7.08 µM [inhibitor, full curve] | – |
| CSc1ncc(CN2CCN(C3CCCCC3)C(CCO)C2)cn1 (centres undefined) | active: 14.1 µM | – |
| CCCSCCCNC(=O)C1CCCN(c2nn3cc(-c4ccc(OC)cc4)nc3s2)C1 (centres undefined) | – | inactive: -10% |
| C#CC(=O)N(c1cccc(OC)c1)C(C(=O)NC1CCCC1)c1cccs1 (centres undefined) | inconclusive: 0.794 µM [inhibitor, single point] | – |
| O=C(O)CCCNc1ccc(S(=O)(=O)N2CCCCC2)cc1 | inconclusive: 28.2 µM [inhibitor, single point] | – |
| CCOC(=O)C(C)(C)NS(=O)(=O)c1ccc(Cl)c([N+](=O)[O-])c1 | inconclusive: 28.2 µM [inhibitor, partial curve] | – |
| COCc1cc(C)nc2sc(C(=O)OC(C)C)c(N)c12 | inconclusive: 12.6 µM [inhibitor, partial curve, poor fit] | – |

By substructure, those above containing fluorine

| SMILES | Potency | activity change, negative = inhibition |
| --- | --- | --- |
| COc1ccc2c(CNCc3cccs3)c(C(=O)O)n(Cc3cccc(F)c3)c2c1 | – | inactive: -1.21% |
| CN(CCOc1ccc(Cl)cc1)CC(=O)Nc1ccc(OC(F)F)cc1 | inconclusive: 39.8 µM [inhibitor, single point] | – |

Remaining list, next part

| SMILES | Potency | activity change, negative = inhibition |
| --- | --- | --- |
| COc1ccc(C(=O)N/N=C\c2coc3ccc(C)cc3c2=O)cc1 | – | inactive: -3% |
| COc1ccc(CC(=O)n2nc(-c3ccc(Cl)cc3)nc2NCc2ccco2)cc1 | inconclusive: 35.5 µM [inhibitor, single point] | – |
| COc1cccc(Cn2c(=O)c3ccccc3n3nc(C)cc23)c1 | inconclusive: 39.8 µM [inhibitor, single point] | – |
| COc1cc(/C=C(\C#N)c2nc3ccccc3[nH]2)cc(Cl)c1OCc1ccccc1Cl | inconclusive: 39.8 µM [inhibitor, single point] | – |
| Cc1cc(NC(=O)c2cccs2)ncc1NC(=O)C(C)(C)C | – | inactive: 1.98% |
| Nc1ccccc1C(=O)C[C@@H](N)C(=O)O | inconclusive: 0.891 µM [inhibitor, partial curve, poor fit] | – |
| Cc1ccc2c(c1)C(c1ccccc1)N(C(=O)c1ccc3c(c1)OCO3)CC(=O)N2 (centres undefined) | inconclusive: 7.94 µM [inhibitor, full curve, poor fit] | – |
| O=C(O)c1ccccc1NC1CCCCC1NS(=O)(=O)c1ccccc1 (centres undefined) | inconclusive: 0.631 µM [inhibitor, partial curve, poor fit] | – |
| O=S(=O)(CCc1nc2ccccc2s1)c1ccc2ccccc2c1 | – | inactive: -9.16% |
| CSc1nnc(NC(=O)c2nc(S(=O)(=O)Cc3ccccc3F)ncc2Cl)s1 | – | inactive: -5.45% |
| CCCCCCCC1c2c(c(C)c(C)oc2=O)Oc2c(C)c(C)oc(=O)c21 | inconclusive: 20 µM [inhibitor, partial curve] | – |
| Cc1noc(NS(=O)(=O)c2ccc(NC(=O)CSc3nc4ccccc4s3)cc2)c1C | inconclusive: 31.6 µM [inhibitor, single point] | – |
| Cc1ccc(C)c(N2CCN(C(=O)C3CCCN(S(=O)(=O)c4cccc5nsnc45)C3)CC2)c1 (centres undefined) | – | inactive: -5.1% |
| Cc1ccc(N2NC(C)(c3cccs3)NC2=S)cc1 (centres undefined) | – | inactive: -1.84% |
| N#C/C(C(=O)Nc1ccc(Cl)cc1)=C(/S)Nc1ccccc1 | active: 7.94 µM | – |
| Cc1cc(Cl)ccc1C(=O)C1CCCN(C(=O)c2nonc2C)C1 (centres undefined) | inconclusive: 0.631 µM [inhibitor, full curve, poor fit] | – |
| CC1CCc2c(sc3nc(CN4CCOCC4)nc(NS(=O)(=O)c4cccc([N+](=O)[O-])c4)c23)C1 (centres undefined) | inconclusive: 39.8 µM [inhibitor, single point] | – |
| O=C(CSc1nncc2ccccc12)Nc1ccc(C(=O)O)cc1 | – | inactive: -21.1% |
| COC(=O)c1ccc(/C=N/Nc2nc(C)c(C)s2)cc1 | inconclusive: 3.55 µM [inhibitor, partial curve] | – |
| Cc1ccc(-n2ncc3c2CCCC3NC(=O)CCc2c(C)noc2C)cc1C (centres undefined) | inconclusive: 0.1 µM [inhibitor, full curve, poor fit] | – |
| N#CCC(=O)Nc1ccc(C(=O)OCC(=O)Nc2ccc3ccccc3c2)cc1 | inconclusive: 39.8 µM [inhibitor, single point] | – |
| Cc1ccc(OCC(=O)c2cc(C)n(-c3ccccc3)c2C)c([N+](=O)[O-])n1 | – | inactive: -2.64% |
| COC(=O)c1scc(C)c1NC(=O)/C=C/C(=O)O | – | inactive: -17.4% |

| SMILES | Potency | activity change, negative = inhibition |
| --- | --- | --- |
| CC1C/C(=C/c2ccco2)C(=O)/C(=C/c2ccco2)C1 (centres undefined) | inconclusive: 25.1 µM [inhibitor, single point] | – |
| O=C(Cn1cc(S(=O)(=O)N2CCCC2)c(S(=O)(=O)N2CCCC2)c1)Nc1cccc(F)c1 | – | inactive: 4.56% |
| C=C1CCN(C(C)C(=O)O)S(=O)(=O)c2ccccc21 (centres undefined) | inconclusive: 0.141 µM [inhibitor, full curve, poor fit] | – |
| Cc1c(C(=O)N2CCCC2)oc2ccc(Br)cc12 | – | inactive: -18.8% |
| O=C(CCNC(=O)C1CCN(S(=O)(=O)c2ccccc2)CC1)NCc1cccc(Cl)c1 | inconclusive: 0.631 µM [inhibitor, full curve, poor fit] | – |
| CC(Oc1ccccc1)C(=O)NC1CCCCCCC1 (centres undefined) | inconclusive: 7.94 µM [inhibitor, partial curve] | – |
| CC(=O)N1N=C(c2ccncc2)CC1c1ccccc1O (centres undefined) | inconclusive: 39.8 µM [inhibitor, single point] | – |
| O=C(Nc1ccc(F)cc1)N1CCC(c2nc3c(nnn3Cc3cccc(Cl)c3)c(=O)[nH]2)CC1 | inconclusive: 25.1 µM [inhibitor, single point] | – |
| COc1cc(/C=C2\CCc3c2nc2ccccc2c3C(=O)O)cc(OC)c1OC | active: 12.6 µM | – |
| COc1cc2nc(/C=C/c3cc(OC)c(OC)c(OC)c3)sc2cc1SC | inconclusive: 39.8 µM [inhibitor, single point] | – |
| CCOC(=O)C1=C(C)Nc2ccccc2N=C1NC(=O)c1ccc(Cl)c(S(=O)(=O)N2CCCC2)c1 | inconclusive: 31.6 µM [inhibitor, single point] | – |
| COc1ccc(NC(=O)C(C)N2CCN(C)CC2)cc1 (centres undefined) | – | inactive: 1.05% |
| CSc1ccc(CCNC(=O)c2cc(C)nn2-c2ccccc2)cc1 | inconclusive: 7.08 µM [inhibitor, partial curve] | – |
| COC(=O)c1ccccc1NC(=O)c1ccc2nccnc2c1 | – | inactive: -2.1% |
| Cc1ccc(-c2nnc(N3CCN(C(=O)COc4ccccc4)CC3)c3ccccc23)cc1 | inconclusive: 39.8 µM [inhibitor, single point] | – |
| O=[N+]([O-])c1ccc(N2N=C(c3ccco3)CC2c2ccccc2)cc1 (centres undefined) | active: 2 µM | – |
| CCCCn1c(N)c(N(CC(C)C)C(=O)C2CCN(S(=O)(=O)c3ccc(C)c(C)c3)CC2)c(=O)[nH]c1=O | inconclusive: 1.78 µM [inhibitor, partial curve] | – |
| CCc1ccc(NC(=O)Cn2nc3c4ccccc4n(Cc4ccccc4)cc-3c2=O)cc1 | – | inactive: -2.47% |
| Cc1nnc(NC(=O)C2CCN(S(=O)(=O)c3cc([N+](=O)[O-])ccc3Cl)CC2)o1 | inconclusive: 25.1 µM [inhibitor, single point] | – |
| O=C(c1ccc(CS(=O)(=O)c2ccccc2)o1)N1CCN(c2ccccc2)CC1 | inconclusive: 17.8 µM [inhibitor, partial curve] | – |
| Nc1nnc(CC(=O)N/N=C/c2ccc(-c3ccc(F)cc3)o2)s1 | – | inactive: 0.621% |
| Cn1ccc2cc3c(cc21)CCN3C(=O)Nc1cccnc1 | inactive | – |
| CCCn1cc(SCC(=O)NCC2CCCO2)c2ccccc21 (centres undefined) | inconclusive: 3.98 µM [inhibitor, single point] | – |

Part of the list above, bar-delimited:
SMILES | Potency | activity change, negative = inhibition
O=C(Nc1ccc(F)cc1)N1CCC(c2nc3c(nnn3Cc3cccc(Cl)c3)c(=O)[nH]2)CC1 | inconclusive: 25.1 µM [inhibitor, single point] | –
Cc1nnc(NC(=O)C2CCN(S(=O)(=O)c3cc([N+](=O)[O-])ccc3Cl)CC2)o1 | inconclusive: 25.1 µM [inhibitor, single point] | –
O=C(c1ccc(CS(=O)(=O)c2ccccc2)o1)N1CCN(c2ccccc2)CC1 | inconclusive: 17.8 µM [inhibitor, partial curve] | –
